# The list shows only some results of the screen, not a fair sample: it is rich in T/C values a quarter to a half above the control, in often repeated tests (any T/C) and in doses without a T/C. Other doses and runs of a compound stand elsewhere. T/C gives the treated animals as a percentage of the vehicle group. Some doses have a count of surviving animals in place of a T/C: the source holds a T/C of zero for them, seemingly a mark for toxic or unscored doses. Some doses without a T/C left all or most animals alive at the check, yet need not have been tolerated: the source hardly ever lists a survival T/C far under the control, and the zero likely stands for such cases as well. Counts of survivors are from the toxicity check (mostly the fifth day) where no day follows; animals may have died later. Schedules are NCI's codes, taken here to give the interval after Q, in days (D) or hours (H), and the number of doses after X. Some entries were tested several times; the values are given in rising order. Where survival is the endpoint, the PubChem record calls one and a half times the control and up active, and a quarter to a half above the control has no call in these data; cut-offs in other NCI protocols can differ.
# System: P388 leukemia ip, CD2F1 mice, survival T/C
# Experiment: NCI In Vivo Anticancer Drug Screen. Data for tumor model P388 Leukemia (intraperitoneal) in CD2F1 (CDF1) mice
# Conditions: T/C endpoint: median survival time, higher T/C = longer survival
# [1] = dose: 50.0 mg/kg/injection, schedule: Q01DX005 (ip), vehicle: saline
# [2] = dose: 100.0 mg/kg/injection, schedule: Q01DX005 (ip), vehicle: saline
# [3] = dose: 200.0 mg/kg/injection, schedule: Q01DX005 (ip), vehicle: saline
# [4] = dose: 200.0 mg/kg/injection, schedule: Q01DX005 (ip), vehicle: Klucel (hydroxypropylcellulose) (HPC)
# [5] = dose: 50.0 mg/kg/injection, schedule: Q01DX009 (ip), vehicle: saline
# [6] = dose: 100.0 mg/kg/injection, schedule: Q01DX009 (ip), vehicle: saline
# [7] = dose: 200.0 mg/kg/injection, schedule: Q01DX009 (ip), vehicle: saline
# [8] = dose: 50.0 mg/kg/injection, schedule: Q01DX009 (ip), vehicle: saline with Tween-80
# [9] = dose: 200.0 mg/kg/injection, schedule: Q01DX009 (ip), vehicle: saline with Tween-80
# [10] = dose: 200.0 mg/kg/injection, schedule: Q04DX003 (ip), vehicle: saline
# [11] = dose: 400.0 mg/kg/injection, schedule: Q01DX009 (ip), vehicle: saline with Tween-80
# [12] = dose: 200.0 mg/kg/injection, schedule: Q01DX005 (ip), vehicle: saline with Tween-80
compound,measurement,setting,value
CN(Cc1cnc2nc(N)nc(N)c2c1)c1ccc(C(=O)NC(CCC(=O)O)C(=O)O)cc1 (stereo unspecified),T/C,"dose: 0.5 mg/kg/injection, schedule: Q01DX005 (ip), vehicle: other",137 % of control
same,T/C,"dose: 1.0 mg/kg/injection, schedule: Q01DX005 (ip), vehicle: other",136 % of control
same,survivor count,"dose: 8.0 mg/kg/injection, schedule: Q01DX005 (ip), vehicle: other",5 of 5 and 7 of 7
O=S1(=O)CS(=O)(=O)OCCCCO1,T/C,"dose: 6.25 mg/kg/injection, schedule: Q01DX005 (ip), vehicle: saline",142 % of control
same,survivor count,[1],5 of 5 and 6 of 6
same,survivor count,[2],2 of 5
same,survivor count,[3],0 of 5
CC(=C\c1ccc(Cl)c(Cl)c1)/C(C)=N/NC(N)=Nc1ccc(C)cc1,survivor count,"dose: 100.0 mg/kg/injection, schedule: Q04DX002 (ip), vehicle: saline with Tween-80",1 of 6
CN1CC=C(c2ccccc2)CC1,survivor count,[1],4 of 6
same,survivor count,[2],0 of 6
same,survivor count,[3],0 of 6
Cn1c(=O)c2c(=O)n3ccccc3nc2n(C)c1=O,survivor count,[4],6 of 6
Cn1c2cc([N+](=O)[O-])ccc2c(=O)c2c(O)cc3c(c21)C=CC(C)(C)O3,survivor count,"dose: 400.0 mg/kg/injection, schedule: Q01DX001 (ip), vehicle: saline with Tween-80",5 of 6
O=C(Nc1ncc([N+](=O)[O-])s1)c1ccc([N+](=O)[O-])cc1,survivor count,[5],5 of 6
same,survivor count,[6],0 of 6
same,survivor count,[7],0 of 6
COc1ccc(OC)c(C2N(Cc3ccc(N(C)C)cc3)CCCN2Cc2ccc(N(C)C)cc2)c1,survivor count,"dose: 200.0 mg/kg/injection, schedule: Q04DX003 (ip), vehicle: saline with Tween-80",6 of 6
CS/N=C(/c1ccc(/C(=N/SC)N(C)C)cc1)N(C)C,survivor count,"dose: 240.0 mg/kg/injection, schedule: Q01DX005 (ip), vehicle: Klucel (hydroxypropylcellulose) (HPC)",1 of 6
CCCC(=O)NC1CCc2cc(OC)c(OC)c(OC)c2-c2ccc(OC)c(=O)cc21 (stereo unspecified),T/C,"dose: 0.31 mg/kg/injection, schedule: Q01DX009 (ip), vehicle: Klucel (hydroxypropylcellulose) (HPC)",139 and 142 % of control
same,survivor count,"dose: 2.5 mg/kg/injection, schedule: Q01DX009 (ip), vehicle: Klucel (hydroxypropylcellulose) (HPC)",3 of 5
same,survivor count,"dose: 5.0 mg/kg/injection, schedule: Q01DX009 (ip), vehicle: Klucel (hydroxypropylcellulose) (HPC)",0 of 5
O=C1C(Br)=CC(=NCl)C=C1Br,survivor count,[8],3 of 6
NC(=S)N/N=C\Cn1cc([N+](=O)[O-])c(=O)[nH]c1=O,survivor count,[4],6 of 6
CCCCCCC(/C=C/c1ccc(Cl)c(Cl)c1)=N\NC(=O)C[N+](C)(C)C,survivor count,[8],2 of 6
same,survivor count,[6],3 of 6
same,survivor count,[7],0 of 6
CCC(=O)NC(Cc1cccc(F)c1)C(=O)O (stereo unspecified),survivor count,"dose: 25.0 mg/kg/injection, schedule: Q01DX009 (ip), vehicle: saline",2 of 6
same,survivor count,[5],0 of 6
same,survivor count,[6],0 of 6
same,survivor count,[7],0 of 6
COc1ccc2c(c1OC)C(=O)OC2c1cc(Br)c(O)c(C2OC(=O)c3c2ccc(OC)c3OC)c1 (stereo unspecified),survivor count,"dose: 25.0 mg/kg/injection, schedule: Q01DX009 (ip), vehicle: saline with Tween-80",6 of 6
same,survivor count,[9],6 of 6
same,survivor count,[10],6 of 6
same,survivor count,[11],6 of 6
C/C(=N\NC(=S)N1CCN(C)CC1)c1ccccn1,survivor count,"dose: 100.0 mg/kg/injection, schedule: Q04DX003 (ip), vehicle: saline",2 of 6
same,survivor count,[10],0 of 6
same,survivor count,"dose: 400.0 mg/kg/injection, schedule: Q04DX003 (ip), vehicle: saline",0 of 6
c1ccc(O[Si](Oc2ccccc2)(Oc2ccccc2)Oc2ccccc2)cc1,survivor count,"dose: 200.0 mg/kg/injection, schedule: Q01DX009 (ip), vehicle: other",5 of 6
Nc1c(C(=O)O)ccc2c1C(=O)c1ccccc1C2=O,survivor count,"dose: 100.0 mg/kg/injection, schedule: Q01DX005 (ip), vehicle: saline with Tween-80",0 of 5
same,survivor count,[12],0 of 5
Cc1c(N)nc(C(CC(N)=O)NCC(N)C(N)=O)nc1C(=O)NC(C(=O)NC(C)C(O)C(C)C(=O)NC(C(=O)NCCc1nc(-c2nc(C(=O)NCCCNCCCCN)cs2)cs1)C(C)O)C(OC1OC(CO)C(O)C(O)C1OC1OC(CO)C(O)C(OC(N)=O)C1O)c1cnc[nH]1 (stereo unspecified),T/C,"dose: 25.0 mg/kg/injection, schedule: Q01DX005 (ip), vehicle: saline",133 % of control
same,T/C,[1],135 and 136 % of control
same,survivor count,[2],6 of 6
same,survivor count,[3],1 of 6
CC1/C(=N/Nc2ccc([N+](=O)[O-])cc2)CC2C3(C)CCC2(C(C)C(=O)O)C(=O)C13 (stereo unspecified),survivor count,"dose: 200.0 mg/kg/injection, schedule: Q04DX003 (ip), vehicle: Klucel (hydroxypropylcellulose) (HPC)",6 of 6
Oc1ccccc1C=Nc1cccnc1,survivor count,[8],4 of 6
same,survivor count,"dose: 100.0 mg/kg/injection, schedule: Q01DX009 (ip), vehicle: saline with Tween-80",1 of 6
same,survivor count,[9],0 of 6
same,survivor count,[11],0 of 6
CN=C(c1ccc(NC(=O)c2ccc(C(=O)Nc3ccc(C(=NC)N4CCCC4)cc3)cc2)cc1)N1CCCC1,survivor count,"dose: 6.25 mg/kg/injection, schedule: Q01DX005 (ip), vehicle: Klucel (hydroxypropylcellulose) (HPC)",0 of 6
same,survivor count,"dose: 12.5 mg/kg/injection, schedule: Q01DX005 (ip), vehicle: Klucel (hydroxypropylcellulose) (HPC)",0 of 6
same,survivor count,"dose: 25.0 mg/kg/injection, schedule: Q01DX005 (ip), vehicle: Klucel (hydroxypropylcellulose) (HPC)",0 of 6
same,survivor count,"dose: 50.0 mg/kg/injection, schedule: Q01DX005 (ip), vehicle: Klucel (hydroxypropylcellulose) (HPC)",0 of 6
same,survivor count,"dose: 100.0 mg/kg/injection, schedule: Q01DX005 (ip), vehicle: Klucel (hydroxypropylcellulose) (HPC)",0 of 6
same,survivor count,[4],0 of 6
C[N+]12CCC34C5=CC(=O)C(=O)C=C5[N+]5(C)C(=O)CC6OCC=C(C1)C(CC32)C6C45 (stereo unspecified),survivor count,"dose: 60.0 mg/kg/injection, schedule: Q01DX005 (ip), vehicle: saline",0 of 6
same,survivor count,"dose: 120.0 mg/kg/injection, schedule: Q01DX005 (ip), vehicle: saline",0 of 6
same,survivor count,"dose: 240.0 mg/kg/injection, schedule: Q01DX005 (ip), vehicle: saline",0 of 6
COC(=O)c1[nH]c(=O)c(C#N)c(C(=O)OC)c1C(=O)c1ccncc1,survivor count,[12],3 of 6
COc1cccc2c1C(=N)c1c(O)c3c(c(O)c1C2=O)C[C@@](O)(C(=O)CO)C[C@@H]3OC1CC(N)C(O)C(C)O1 (stereo partly specified),T/C,"dose: 6.25 mg/kg/injection, schedule: Q04DX003 (ip), vehicle: water",128 % of control
same,T/C,"dose: 12.5 mg/kg/injection, schedule: Q04DX003 (ip), vehicle: water",132 and 148 % of control
same,T/C,"dose: 200.0 mg/kg/injection, schedule: Q04DX003 (ip), vehicle: water",126 % of control
NS(=O)(=O)c1ccc(C(=O)O)s1,survivor count,[12],6 of 6
CCN(CC)c1ccc(NC(c2ccccc2)C(O)c2ccccc2)cc1 (stereo unspecified),survivor count,[4],0 of 5
Cc1nc2c([N+](=O)[O-])c(N3CCCCC3)c([N+](=O)[O-])cc2[nH]1,survivor count,"dose: 400.0 mg/kg/injection, schedule: Q04DX002 (ip), vehicle: saline with Tween-80",1 of 6
C(=C\c1ccnc2c1ccc1ccccc12)/c1ccccc1,survivor count,"dose: 50.0 mg/kg/injection, schedule: Q01DX005 (ip), vehicle: saline with Tween-80",5 of 5
COP(=O)(OC)OC.COP(=O)(OC)OC.COP(=O)(OC)OC.COP(=O)(OC)OC.COP(=O)(OC)OC.[O-][Cl+3]([O-])([O-])O.[Zn+2],survivor count,[7],0 of 6 and 1 of 6
Nc1cccc(SC(CC(=O)c2ccc(-c3ccccc3)cc2)c2ccco2)c1 (stereo unspecified),survivor count,"dose: 200.0 mg/kg/injection, schedule: Q01DX009 (ip), vehicle: Klucel (hydroxypropylcellulose) (HPC)",5 of 6
CC(C)CC(C(=O)O)N(CC(=O)O)CC(=O)O (stereo unspecified),survivor count,[1],4 of 5
same,survivor count,[2],5 of 5
same,survivor count,[3],5 of 5

# — PubChem BioAssay AID330 (DTP/NCI, 2004)
